Measurements as given in patent EP1757701A1.
Results are given in words; binding and its absence hold for the method and conditions named. Some results given as binding are weak or reduced against the parent protein; the word gives no strength.

target: IgG-Fc [IgG part: P01857]; assay: phage clone, ALA scan, IgG-Fc

binding, binds:
WEADCAWHLGEAVWCTKVEE
WEADCAWHLAELVWCTKVEE
WAADCAWHLGELVWCTKVEE
WEADCAAHLGELVWCTKVEE
WEADCAWHLGALVWCTKVEE
WEADCAWHLGELVWCAKVEE
WEADCAWHAGELVWCTKVEE
WEAACSWHLGELVWCTKVEE
WEADCAWHLGELVACTKVEE
WEAACAWHLGELVWCTKVEE
WEADCAWHLGELVWCTKAEE
WEADCAWHLGELAWCTKVEE
WEPDCAWHLGELVWCTKVEE
WEADCAWHLGELVWCTAVEE
WEADCAWALGELVWCTKVEE
AEADCAWHLGELVWCTKVEE
WEADCAWHLGELVWCTKVAE

target: IgG-Fc [IgG part: P01857]; assay: phage clone selected on IgG-Fc

binding, binds:
KEASCSYWLGELVWCEDTLE
KEASCSYWLGELVWCVGLDE
KEASCSYWLGELVWCEDTME
KEASCSYWLGELVWCEDMME
KEASCSYWLGELVWCDDYGE
KEASCSYWLGELVWCDDTPV
WVEDCSWHMGELVWCDGGEF
KEASCSYWLGELVWCDWMNG

target: IgG-Fc [IgG part: P01857]; assay: phage clone, IgG-Fc

binding, binds:
DLADCSWHLGELVWCSRVEG
DLADCSWHLGELVWCVGLDE
WVEDCSWHLGELVWCVGLDF
